Laboratory results from patent US12139558B2 (Ferring B.V., priority 2017, dated 2024).

Test: peptide synthesis
Details: whole synthesis, UV 220 nm, relative UV area % of total area

Question: With carbetocin as the substance, how does the “crude HPLC purity” value read?
Answer: The value was “approximately 91.3%”.
